Experiment: Photo-transformation (UV photo-crosslinking) of cross-linkers without initiator, checked by loss of solubility in chloroform
Conditions: 400 W metal halide lamp, 20 cm

Row | Structure (SMILES) | Photo-transformation, exposure time 5 min | Photo-transformation, exposure time 10 min | Photo-transformation, exposure time 15 min (15 min) | Photo-transformation, exposure time 30 min (30 min)
1 | CC(C)CC(NC(=O)C=Cc1ccccc1)C(=O)OCCCCOC(=O)C(CC(C)C)NC(=O)C=Cc1ccccc1 (centres unmarked) [Leu-4-CA] | + |  |  | 
2 | C=CC(=O)NC(Cc1ccccc1)C(=O)OCCCCOC(=O)C(Cc1ccccc1)NC(=O)C=C (centres unmarked) [Phe-4-AA] | + |  |  | 
3 | C=C(C)C(=O)NC(CC(C)C)C(=O)OCCCCOC(=O)C(CC(C)C)NC(=O)C(=C)C (centres unmarked) [Leu-4-MA] | + |  |  | 
4 | C=CC(=O)NC(CC(C)C)C(=O)OCCCCOC(=O)C(CC(C)C)NC(=O)C=C (centres unmarked) [Leu-4-AA] | + |  |  | 
5 | C=C(C)C(=O)N[C@@H](Cc1ccccc1)C(=O)OCCCCCCOC(=O)[C@H](Cc1ccccc1)NC(=O)C(=C)C [Phe-6-MA, dimethacrylate of bis(L-Phe)-1,6-hexanediol diester] | + |  |  | 
6 | C=CC(=O)NC(CC(C)C)C(=O)OCCCCCCOC(=O)C(CC(C)C)NC(=O)C=C (centres unmarked) [Leu-6-AA] | + |  |  | 
7 | CC(C)CC(NC(=O)C=Cc1ccccc1)C(=O)OCCCCCCOC(=O)C(CC(C)C)NC(=O)C=Cc1ccccc1 (centres unmarked) [Leu-6-CA] | − | − | − | +
8 | C=C(C)C(=O)NC(Cc1ccccc1)C(=O)OCCCCOC(=O)C(Cc1ccccc1)NC(=O)C(=C)C (centres unmarked) [Phe-4-MA] | + |  |  | 
9 | O=C(C=Cc1ccccc1)NC(Cc1ccccc1)C(=O)OCCCCCCOC(=O)C(Cc1ccccc1)NC(=O)C=Cc1ccccc1 (centres unmarked) [Phe-6-CA] | − | + |  | 
10 | C=C(C)C(=O)NC(CC(C)C)C(=O)OCCCCCCOC(=O)C(CC(C)C)NC(=O)C(=C)C (centres unmarked) [Leu-6-MA] | + |  |  | 
11 | O=C(C=Cc1ccccc1)NC(Cc1ccccc1)C(=O)OCCCCOC(=O)C(Cc1ccccc1)NC(=O)C=Cc1ccccc1 (centres unmarked) [Phe-4-CA] | − | + |  | 
12 | C=CC(=O)NC(Cc1ccccc1)C(=O)OCCCCCCOC(=O)C(Cc1ccccc1)NC(=O)C=C (centres unmarked) [Phe-6-AA] | + |  |  | 

— US7649022B2, “Bioabsorbable elastomeric polymer networks, cross-linkers and methods of use” (priority 2007, dated 2010)
